These are yes or no findings as the source states them, for the method shown. Binding seen in cells or lysates may run through a third protein. Some results given as binding are weak or reduced against the parent protein; the word gives no strength. For some assays here: Sequences can lack the tags named with a protein.
Assays:
[1] = target: T1, RNF152 (endogenous) (human (endogenous in HEK293T)) (UniProt Q8N8N0); assay: co-IP; endogenous proteins; CHAPS lysis buffer (40 mM HEPES pH 7.4, 120 mM NaCl, 1 mM EDTA, 0.3% CHAPS); cells with or without EGF, RNF152 or USP4 knock-down or knock-out, Vialinin A
T1 sequence: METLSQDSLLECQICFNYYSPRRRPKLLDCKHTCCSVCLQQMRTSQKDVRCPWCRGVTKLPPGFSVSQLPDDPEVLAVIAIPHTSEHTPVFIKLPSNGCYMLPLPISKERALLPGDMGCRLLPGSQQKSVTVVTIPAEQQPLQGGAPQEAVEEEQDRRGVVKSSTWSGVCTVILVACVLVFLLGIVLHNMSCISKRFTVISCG

Protein sequences, listed by entry. Tags and fused reporters are not part of them.
UniProt Q921J2: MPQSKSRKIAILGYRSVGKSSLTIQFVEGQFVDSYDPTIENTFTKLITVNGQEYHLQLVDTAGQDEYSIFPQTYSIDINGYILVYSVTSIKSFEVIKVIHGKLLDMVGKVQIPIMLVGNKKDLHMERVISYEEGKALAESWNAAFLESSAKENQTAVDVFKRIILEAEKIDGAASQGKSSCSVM
UniProt Q61037: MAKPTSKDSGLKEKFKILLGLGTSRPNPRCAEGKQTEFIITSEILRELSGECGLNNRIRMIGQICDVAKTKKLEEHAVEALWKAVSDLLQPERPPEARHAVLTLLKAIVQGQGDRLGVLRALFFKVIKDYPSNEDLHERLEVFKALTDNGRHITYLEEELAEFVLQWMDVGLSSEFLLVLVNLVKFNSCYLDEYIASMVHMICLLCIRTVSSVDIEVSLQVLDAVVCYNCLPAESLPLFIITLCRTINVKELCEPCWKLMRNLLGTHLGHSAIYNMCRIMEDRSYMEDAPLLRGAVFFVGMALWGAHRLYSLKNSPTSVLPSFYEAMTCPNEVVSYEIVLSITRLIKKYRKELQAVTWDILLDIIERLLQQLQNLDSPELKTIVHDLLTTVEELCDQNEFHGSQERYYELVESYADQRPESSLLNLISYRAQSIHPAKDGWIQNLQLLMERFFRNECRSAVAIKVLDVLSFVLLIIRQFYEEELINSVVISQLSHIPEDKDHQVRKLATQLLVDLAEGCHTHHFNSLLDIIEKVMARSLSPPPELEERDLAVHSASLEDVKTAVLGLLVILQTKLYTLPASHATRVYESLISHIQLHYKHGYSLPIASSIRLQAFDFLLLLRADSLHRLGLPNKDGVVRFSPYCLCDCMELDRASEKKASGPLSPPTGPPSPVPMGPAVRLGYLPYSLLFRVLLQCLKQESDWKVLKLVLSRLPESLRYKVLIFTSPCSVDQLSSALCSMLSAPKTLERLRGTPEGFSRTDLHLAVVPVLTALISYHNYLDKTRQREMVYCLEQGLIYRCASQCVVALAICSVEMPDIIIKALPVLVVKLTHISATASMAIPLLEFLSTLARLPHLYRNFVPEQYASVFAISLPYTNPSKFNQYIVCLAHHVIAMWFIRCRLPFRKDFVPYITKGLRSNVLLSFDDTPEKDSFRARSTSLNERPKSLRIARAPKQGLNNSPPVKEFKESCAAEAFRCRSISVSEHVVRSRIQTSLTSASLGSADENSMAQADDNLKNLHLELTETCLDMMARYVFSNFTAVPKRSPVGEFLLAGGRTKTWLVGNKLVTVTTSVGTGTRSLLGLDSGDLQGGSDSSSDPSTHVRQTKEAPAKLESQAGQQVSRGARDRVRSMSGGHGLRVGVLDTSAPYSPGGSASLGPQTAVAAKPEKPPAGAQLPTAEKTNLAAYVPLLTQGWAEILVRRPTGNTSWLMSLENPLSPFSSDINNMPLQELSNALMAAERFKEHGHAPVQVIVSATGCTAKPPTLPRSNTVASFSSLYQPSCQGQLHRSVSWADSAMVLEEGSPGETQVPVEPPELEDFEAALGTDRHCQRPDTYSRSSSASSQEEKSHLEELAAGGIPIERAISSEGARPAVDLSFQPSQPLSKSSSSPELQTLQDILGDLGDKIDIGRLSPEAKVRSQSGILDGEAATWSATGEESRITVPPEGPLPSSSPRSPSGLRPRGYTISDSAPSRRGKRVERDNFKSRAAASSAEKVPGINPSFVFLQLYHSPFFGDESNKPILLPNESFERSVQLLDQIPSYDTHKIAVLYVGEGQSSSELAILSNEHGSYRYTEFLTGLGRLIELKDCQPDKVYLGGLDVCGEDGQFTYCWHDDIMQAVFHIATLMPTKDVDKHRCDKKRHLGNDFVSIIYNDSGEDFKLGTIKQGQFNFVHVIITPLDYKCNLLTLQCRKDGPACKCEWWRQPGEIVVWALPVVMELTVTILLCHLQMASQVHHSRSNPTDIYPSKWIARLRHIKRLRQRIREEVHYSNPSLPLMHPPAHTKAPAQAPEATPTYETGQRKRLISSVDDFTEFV

[2] = target: Rheb in MEF cells (mouse (endogenous in MEF)) (UniProt Q921J2); assay: co-IP; RNF152 knockout and control MEF cells (Fig. 4e)
GST-USP4 = target: T2, GST-USP4 (UniProt Q13107); assay: pull-down; in vitro GST pull down assay of USP4 and Rheb (Fig. 3b)
T2 sequence: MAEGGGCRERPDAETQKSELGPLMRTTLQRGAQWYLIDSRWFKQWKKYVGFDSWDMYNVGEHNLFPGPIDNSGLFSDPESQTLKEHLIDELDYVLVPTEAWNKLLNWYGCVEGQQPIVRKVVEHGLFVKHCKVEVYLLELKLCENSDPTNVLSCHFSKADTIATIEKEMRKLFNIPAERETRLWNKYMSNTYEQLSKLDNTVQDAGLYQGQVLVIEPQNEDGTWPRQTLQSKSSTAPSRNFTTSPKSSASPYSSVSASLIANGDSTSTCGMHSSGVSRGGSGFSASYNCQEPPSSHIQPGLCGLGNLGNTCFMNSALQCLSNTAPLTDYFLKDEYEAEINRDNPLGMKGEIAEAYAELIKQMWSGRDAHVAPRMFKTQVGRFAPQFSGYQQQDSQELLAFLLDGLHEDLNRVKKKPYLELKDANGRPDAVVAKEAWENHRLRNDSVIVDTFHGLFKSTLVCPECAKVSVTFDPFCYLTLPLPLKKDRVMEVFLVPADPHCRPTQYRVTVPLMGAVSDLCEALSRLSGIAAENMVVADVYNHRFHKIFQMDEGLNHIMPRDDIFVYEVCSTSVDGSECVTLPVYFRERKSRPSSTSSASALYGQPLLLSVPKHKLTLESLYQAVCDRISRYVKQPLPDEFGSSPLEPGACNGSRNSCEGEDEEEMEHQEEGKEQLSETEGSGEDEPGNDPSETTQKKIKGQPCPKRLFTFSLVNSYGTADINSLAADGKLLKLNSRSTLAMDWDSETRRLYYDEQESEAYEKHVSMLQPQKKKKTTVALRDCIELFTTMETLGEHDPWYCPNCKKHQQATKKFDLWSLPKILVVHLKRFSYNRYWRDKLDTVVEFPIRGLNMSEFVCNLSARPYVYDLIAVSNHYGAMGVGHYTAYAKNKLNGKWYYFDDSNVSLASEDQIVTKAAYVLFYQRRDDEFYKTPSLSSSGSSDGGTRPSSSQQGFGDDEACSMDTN

RNF152 (exogenous) = target: T3, RNF152 (exogenous) (UniProt Q8N8N0); assay: co-IP; transfected HEK293T cells, CHAPS lysis buffer, HA-conjugated beads or M2 beads 2-3 h; with or without EGF, co-expressed TSC2, TSC2-3Q, RNF152, RNF152-CS, USP4, USP4-CS, USP4 deficiency
T3 sequence: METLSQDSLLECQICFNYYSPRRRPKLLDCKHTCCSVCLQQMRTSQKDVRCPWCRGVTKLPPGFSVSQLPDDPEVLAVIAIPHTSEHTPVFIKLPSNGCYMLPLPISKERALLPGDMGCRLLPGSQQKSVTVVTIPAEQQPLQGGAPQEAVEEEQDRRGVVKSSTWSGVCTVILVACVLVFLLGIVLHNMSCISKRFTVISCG

[3] = target: Rheb (endogenous) (human (endogenous in HEK293T)) (UniProt Q15382); assay: co-IP; endogenous proteins; CHAPS lysis buffer (40 mM HEPES pH 7.4, 120 mM NaCl, 1 mM EDTA, 0.3% CHAPS); cells with or without EGF, RNF152 or USP4 knock-down or knock-out, Vialinin A
Rheb-WT (exogenous) = Rheb-WT (exogenous) (UniProt Q15382); assay: co-IP; transfected HEK293T cells, CHAPS lysis buffer, HA-conjugated beads or M2 beads 2-3 h; with or without EGF, co-expressed TSC2, TSC2-3Q, RNF152, RNF152-CS, USP4, USP4-CS, USP4 deficiency

## Rheb (endogenous) (from UniProt Q15382 1-184)
[1]
  binding: binds

## TSC2 in MEF cells (from UniProt Q61037 1-1814)
[2]
  binding: binds

## His-Rheb (from UniProt Q15382 1-184)
GST-USP4
  binding: binds

## Rheb-WT (exogenous) (from UniProt Q15382 1-184)
RNF152 (exogenous)
  binding: binds

B1: USP4 (endogenous) (enzyme, UniProt Q13107 1-963)
chain: MAEGGGCRERPDAETQKSELGPLMRTTLQRGAQWYLIDSRWFKQWKKYVGFDSWDMYNVGEHNLFPGPIDNSGLFSDPESQTLKEHLIDELDYVLVPTEAWNKLLNWYGCVEGQQPIVRKVVEHGLFVKHCKVEVYLLELKLCENSDPTNVLSCHFSKADTIATIEKEMRKLFNIPAERETRLWNKYMSNTYEQLSKLDNTVQDAGLYQGQVLVIEPQNEDGTWPRQTLQSKSSTAPSRNFTTSPKSSASPYSSVSASLIANGDSTSTCGMHSSGVSRGGSGFSASYNCQEPPSSHIQPGLCGLGNLGNTCFMNSALQCLSNTAPLTDYFLKDEYEAEINRDNPLGMKGEIAEAYAELIKQMWSGRDAHVAPRMFKTQVGRFAPQFSGYQQQDSQELLAFLLDGLHEDLNRVKKKPYLELKDANGRPDAVVAKEAWENHRLRNDSVIVDTFHGLFKSTLVCPECAKVSVTFDPFCYLTLPLPLKKDRVMEVFLVPADPHCRPTQYRVTVPLMGAVSDLCEALSRLSGIAAENMVVADVYNHRFHKIFQMDEGLNHIMPRDDIFVYEVCSTSVDGSECVTLPVYFRERKSRPSSTSSASALYGQPLLLSVPKHKLTLESLYQAVCDRISRYVKQPLPDEFGSSPLEPGACNGSRNSCEGEDEEEMEHQEEGKEQLSETEGSGEDEPGNDPSETTQKKIKGQPCPKRLFTFSLVNSYGTADINSLAADGKLLKLNSRSTLAMDWDSETRRLYYDEQESEAYEKHVSMLQPQKKKKTTVALRDCIELFTTMETLGEHDPWYCPNCKKHQQATKKFDLWSLPKILVVHLKRFSYNRYWRDKLDTVVEFPIRGLNMSEFVCNLSARPYVYDLIAVSNHYGAMGVGHYTAYAKNKLNGKWYYFDDSNVSLASEDQIVTKAAYVLFYQRRDDEFYKTPSLSSSGSSDGGTRPSSSQQGFGDDEACSMDTN
[3]
  binding: binds

B2: USP4-WT (exogenous) (enzyme, UniProt Q13107 1-963)
chain: MAEGGGCRERPDAETQKSELGPLMRTTLQRGAQWYLIDSRWFKQWKKYVGFDSWDMYNVGEHNLFPGPIDNSGLFSDPESQTLKEHLIDELDYVLVPTEAWNKLLNWYGCVEGQQPIVRKVVEHGLFVKHCKVEVYLLELKLCENSDPTNVLSCHFSKADTIATIEKEMRKLFNIPAERETRLWNKYMSNTYEQLSKLDNTVQDAGLYQGQVLVIEPQNEDGTWPRQTLQSKSSTAPSRNFTTSPKSSASPYSSVSASLIANGDSTSTCGMHSSGVSRGGSGFSASYNCQEPPSSHIQPGLCGLGNLGNTCFMNSALQCLSNTAPLTDYFLKDEYEAEINRDNPLGMKGEIAEAYAELIKQMWSGRDAHVAPRMFKTQVGRFAPQFSGYQQQDSQELLAFLLDGLHEDLNRVKKKPYLELKDANGRPDAVVAKEAWENHRLRNDSVIVDTFHGLFKSTLVCPECAKVSVTFDPFCYLTLPLPLKKDRVMEVFLVPADPHCRPTQYRVTVPLMGAVSDLCEALSRLSGIAAENMVVADVYNHRFHKIFQMDEGLNHIMPRDDIFVYEVCSTSVDGSECVTLPVYFRERKSRPSSTSSASALYGQPLLLSVPKHKLTLESLYQAVCDRISRYVKQPLPDEFGSSPLEPGACNGSRNSCEGEDEEEMEHQEEGKEQLSETEGSGEDEPGNDPSETTQKKIKGQPCPKRLFTFSLVNSYGTADINSLAADGKLLKLNSRSTLAMDWDSETRRLYYDEQESEAYEKHVSMLQPQKKKKTTVALRDCIELFTTMETLGEHDPWYCPNCKKHQQATKKFDLWSLPKILVVHLKRFSYNRYWRDKLDTVVEFPIRGLNMSEFVCNLSARPYVYDLIAVSNHYGAMGVGHYTAYAKNKLNGKWYYFDDSNVSLASEDQIVTKAAYVLFYQRRDDEFYKTPSLSSSGSSDGGTRPSSSQQGFGDDEACSMDTN
Rheb-WT (exogenous)
  binding: binds

B3: USP4-S445A (enzyme, UniProt Q13107 1-963)
chain: MAEGGGCRERPDAETQKSELGPLMRTTLQRGAQWYLIDSRWFKQWKKYVGFDSWDMYNVGEHNLFPGPIDNSGLFSDPESQTLKEHLIDELDYVLVPTEAWNKLLNWYGCVEGQQPIVRKVVEHGLFVKHCKVEVYLLELKLCENSDPTNVLSCHFSKADTIATIEKEMRKLFNIPAERETRLWNKYMSNTYEQLSKLDNTVQDAGLYQGQVLVIEPQNEDGTWPRQTLQSKSSTAPSRNFTTSPKSSASPYSSVSASLIANGDSTSTCGMHSSGVSRGGSGFSASYNCQEPPSSHIQPGLCGLGNLGNTCFMNSALQCLSNTAPLTDYFLKDEYEAEINRDNPLGMKGEIAEAYAELIKQMWSGRDAHVAPRMFKTQVGRFAPQFSGYQQQDSQELLAFLLDGLHEDLNRVKKKPYLELKDANGRPDAVVAKEAWENHRLRNDAVIVDTFHGLFKSTLVCPECAKVSVTFDPFCYLTLPLPLKKDRVMEVFLVPADPHCRPTQYRVTVPLMGAVSDLCEALSRLSGIAAENMVVADVYNHRFHKIFQMDEGLNHIMPRDDIFVYEVCSTSVDGSECVTLPVYFRERKSRPSSTSSASALYGQPLLLSVPKHKLTLESLYQAVCDRISRYVKQPLPDEFGSSPLEPGACNGSRNSCEGEDEEEMEHQEEGKEQLSETEGSGEDEPGNDPSETTQKKIKGQPCPKRLFTFSLVNSYGTADINSLAADGKLLKLNSRSTLAMDWDSETRRLYYDEQESEAYEKHVSMLQPQKKKKTTVALRDCIELFTTMETLGEHDPWYCPNCKKHQQATKKFDLWSLPKILVVHLKRFSYNRYWRDKLDTVVEFPIRGLNMSEFVCNLSARPYVYDLIAVSNHYGAMGVGHYTAYAKNKLNGKWYYFDDSNVSLASEDQIVTKAAYVLFYQRRDDEFYKTPSLSSSGSSDGGTRPSSSQQGFGDDEACSMDTN
Rheb-WT (exogenous)
  binding: binds weakly

B4: USP4-S445D (enzyme, UniProt Q13107 1-963)
chain: MAEGGGCRERPDAETQKSELGPLMRTTLQRGAQWYLIDSRWFKQWKKYVGFDSWDMYNVGEHNLFPGPIDNSGLFSDPESQTLKEHLIDELDYVLVPTEAWNKLLNWYGCVEGQQPIVRKVVEHGLFVKHCKVEVYLLELKLCENSDPTNVLSCHFSKADTIATIEKEMRKLFNIPAERETRLWNKYMSNTYEQLSKLDNTVQDAGLYQGQVLVIEPQNEDGTWPRQTLQSKSSTAPSRNFTTSPKSSASPYSSVSASLIANGDSTSTCGMHSSGVSRGGSGFSASYNCQEPPSSHIQPGLCGLGNLGNTCFMNSALQCLSNTAPLTDYFLKDEYEAEINRDNPLGMKGEIAEAYAELIKQMWSGRDAHVAPRMFKTQVGRFAPQFSGYQQQDSQELLAFLLDGLHEDLNRVKKKPYLELKDANGRPDAVVAKEAWENHRLRNDDVIVDTFHGLFKSTLVCPECAKVSVTFDPFCYLTLPLPLKKDRVMEVFLVPADPHCRPTQYRVTVPLMGAVSDLCEALSRLSGIAAENMVVADVYNHRFHKIFQMDEGLNHIMPRDDIFVYEVCSTSVDGSECVTLPVYFRERKSRPSSTSSASALYGQPLLLSVPKHKLTLESLYQAVCDRISRYVKQPLPDEFGSSPLEPGACNGSRNSCEGEDEEEMEHQEEGKEQLSETEGSGEDEPGNDPSETTQKKIKGQPCPKRLFTFSLVNSYGTADINSLAADGKLLKLNSRSTLAMDWDSETRRLYYDEQESEAYEKHVSMLQPQKKKKTTVALRDCIELFTTMETLGEHDPWYCPNCKKHQQATKKFDLWSLPKILVVHLKRFSYNRYWRDKLDTVVEFPIRGLNMSEFVCNLSARPYVYDLIAVSNHYGAMGVGHYTAYAKNKLNGKWYYFDDSNVSLASEDQIVTKAAYVLFYQRRDDEFYKTPSLSSSGSSDGGTRPSSSQQGFGDDEACSMDTN
Rheb-WT (exogenous)
  binding: binds

From article PMC6355928
